Out of some 200,000 compounds screened, about 25 (0.01%) were called active. The shares of active, inactive and inconclusive entries below differ from those in the screen. The call rests on the fitted dose curve; in most records, active means well fitted inhibition curve with a large enough effect in the signal ratio, with a control signal flat (not every such curve was filed as active); inconclusive means small, poorly fitted or top-dose-only effect, or effect the other way, or a change in a side signal; inactive means flat fitted curve, though single readings scatter; the % refers to the signal ratio. A potency beside an inconclusive call is a rough fit, not a confirmed value.
Assay: qHTS Assay for Modulators of Lamin A Splicing
Settings: HeLa LMNA splicing GFP/RFP minigene ratio, 48 h; ratio change, negative = inhibition: at 46.1 µM (top of the series) unless noted
In short: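 S3 HeLa stable clones carrying a lamin A-EGFP splicing minigene plus DsRed2 were seeded at 600 cells/well in Opti-MEM with 2% FBS, pin-dosed and incubated 48 h at 37°C. Acumen cytometry (488 nm) gave the GFP/RFP total-intensity ratio.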
On the % scale 0 is the no-effect control and ±100 the full control effect; potency means the concentration at half of the fitted maximal effect.

Row | Compound | ratio change, negative = inhibition | Potency
1 | CCc1ccc(NC(=S)N(CCN2CCCCC2)Cc2ccco2)cc1 | inconclusive: -16% | –
2 | COc1ccc(C(c2c(C)[nH]n(-c3ccccc3)c2=O)c2c(C)[nH]n(-c3ccccc3)c2=O)cc1OC | inactive | –
3 | COc1ccc(-n2nnnc2S(=O)(=O)CC(=O)N2CCCCC2)cc1 | – | inconclusive: 35.5 µM [cytotoxic, single point]
4 | CC(C)c1ccc(CNc2ccc(N3CCOCC3)cc2)cc1 | inactive | –
5 | CCOC(=O)c1c(CN2CCCCC2)n(C)c2cc(Br)c(O)c(CN(C)C)c12 | inconclusive: -34.6% | –
6 | CC(C)c1[nH]nc2c1C(c1cccnc1)C(C#N)=C(N)O2 (stereo not given) | inactive | –
7 | C=CCNCCOc1cccc(Br)c1 | inactive | –
8 | COc1ccc(CC(NC(C)=O)C(=O)NC2CCN(c3c4c(nc5ncnn35)CCC4)CC2)cc1 (stereo not given) | inconclusive: -0.402% | –
9 | COc1ccccc1C(=O)Nc1sc(C(=O)N2CCCC2)c(C)c1C#N | inconclusive: 35.9% [at 46 µM] | –
10 | O=C(OCC(=O)c1ccc(S(=O)(=O)N2CCCC2)cc1)C1=COCCO1 | inactive | –
11 | CSc1cccc(CN2CCCC(CO)(Cc3cccc(Cl)c3)C2)c1 (stereo not given) | inconclusive: 287% [at 46 µM] | –
12 | CCN(CCCNC(=O)Cn1ncc2c([nH]c3ccc(C)cc32)c1=O)c1cccc(C)c1 | inconclusive: -7.99% [at 46 µM] | –
13 | COc1cc(CN2CCN(c3cccc(C)c3C)CC2)cc(Br)c1O | inconclusive: 12.3% | –
14 | CCOC(=O)Nc1ccc(NCc2ccc(F)cc2)nc1N | inactive | –
15 | Cc1csc2nc(-c3cccc(NC(=O)C(C)C)c3)cn12 | inconclusive: 11.1% [at 46 µM] | –
16 | CCCCNC(=O)c1ccc(N2CCOCC2)c(NS(=O)(=O)c2ccc(OC)cc2)c1 | inactive | –
17 | CCOC(=O)C1=C(C)C(c2ccc(OC)cc2)NC(=O)N1 (stereo not given) | inactive | –
18 | COc1ccc(CCC(=O)N2CCc3c([nH]c4ccccc34)C2c2ccc(F)cc2)cc1 (stereo not given) | inconclusive: -35% [at 46 µM] | –
19 | Cc1ccc(S(=O)(=O)NCc2n[nH]c(=S)n2C)cc1 | inactive | –
20 | Cc1cc(S(=O)(=O)N(Cc2cccs2)Cc2ccccc2F)ccc1-n1cnnn1 | – | inconclusive: 35.5 µM [fluorescent, single point]
21 | COc1ccc(CN2C(=O)C(O)(CC(=O)c3ccc4c(c3)OCO4)c3ccccc32)cc1OC (stereo not given) | inactive | –
22 | Nc1ccc(-c2cc(N)n(-c3ccccc3)n2)cc1 | inactive | –
23 | Cc1ccc(CSCC(=O)N2CCN(c3ccccc3)CC2)cc1 | inconclusive: -42.9% | –
24 | CO[C@H]1[C@H](O[C@H]2O[C@@H](C)[C@@H](O[C@@H]3C[C@](C)(O)[C@H](O)[C@H](C)O3)[C@@H](N(C)C)[C@@H]2O)[C@@H](CC=O)C[C@@H](C)[C@@H](O[C@H]2CC[C@H](N(C)C)[C@H](C)O2)/C=C\C=C/C[C@@H](C)OC(=O)C[C@H]1O | inconclusive: -17.7% | –
25 | COc1ccccc1NC(=O)c1c(NCc2ccc(OC)c(OC)c2OC)sc2c1CCCC2 | – | inconclusive: 35.5 µM [inhibitor, single point]
26 | Cc1ccc(C)c(NC(=S)NCCc2ccc(F)cc2)c1 | inactive | –
27 | CCN(CC)S(=O)(=O)c1ccc(NC(=O)CSc2nnc(-c3cccc(OC)c3)n2C)cc1 | inconclusive: -36% | –

Row | Compound | ratio change, negative = inhibition | Potency
28 | CC1CCC2(CC1)NC(=O)N(CC(=O)Nc1sc3c(c1C(N)=O)CCC3)C2=O (stereo not given) | inactive | –
29 | O=S(=O)(Nc1nc2ccccc2nc1Nc1ccc2c(c1)OCCO2)c1cccs1 | inactive | –
30 | O=C(COC(=O)/C=C/c1ccc(F)cc1)NCc1ccco1 | inactive | –
31 | Cc1cc(N2CCCCC2)nc2ccc(NC(=O)c3cccc(Cl)c3)cc12 | inconclusive: -9.78% [at 46 µM] | –
32 | Cc1ccc(S(=O)(=O)Nc2ccc(Cl)cc2C(=O)c2ccc(F)cc2)cc1 | – | inconclusive: 35.5 µM [falling, single point]
33 | CC(CCc1ccccc1)NC(=O)C1CCCN(C(=O)c2cc3sccc3n2C)C1 (stereo not given) | inconclusive: -36.5% | –
34 | Cc1ccc(OCC(=O)Nc2nnc(SCc3cc(=O)c4ccccc4[nH]3)s2)cc1 | inconclusive: -5.35% [at 46 µM] | –
35 | O=C(O)c1[nH]c2ccccc2c1C=NCc1ccccc1Cl | inconclusive: -7.78% [at 46 µM] | –
36 | CC(=O)N(CN1C(=O)c2ccccc2C1=O)c1ccc2c(c1)oc1ccccc12 | inconclusive: -15.8% | –
37 | N#CCC(=O)c1sccc1-n1cccc1 | inconclusive: -26.5% [at 46 µM] | –
38 | CCn1ccc2cc(S(=O)(=O)N3CCCN(C(=O)Nc4cccc(Cl)c4)CC3)ccc21 | inactive | –
39 | COc1ccc(S(=O)(=O)N2CCN(c3ccccc3)CC2)cc1 | inactive | –
40 | CCc1ccc(NC(=O)c2sc(-n3nc(C)c(Cc4ccc(OC)cc4)c3C)nc2C)cc1 | inactive | –
41 | Cc1cc(=S)cc(C)n1CCCn1ccnc1 | inconclusive: -1.66% | –
42 | O=C1c2oc3ccccc3c(=O)c2C(c2ccccc2)N1Cc1ccc2c(c1)OCO2 (stereo not given) | inconclusive: -2.59% [at 46 µM] | –
43 | O=C(CS(=O)CC(=O)N(c1cccc(F)c1)C(C(=O)NC1CCCCC1)c1ccco1)Nc1ccc(F)cc1 (stereo not given) | inconclusive: 0.51% | –
44 | C=CCN1C(=O)/C(=C/c2ccc(OCC(=O)O)cc2)S/C1=N/c1nccs1 | inconclusive: 8.41% | –
45 | CC1CC/C(=C\c2ccc3c(c2)OCO3)C(=O)/C1=C/c1ccc2c(c1)OCO2 (stereo not given) | – | inconclusive: 35.5 µM [cytotoxic, single point]
46 | CCN1C(=O)c2ccccc2Sc2ccc(C(=O)NCCCN(CC(C)C)CC(C)C)cc21 | inconclusive: -0.835% [at 46 µM] | –
47 | O=C1CCCN1CCC1CCN(C2CC(=O)N(Cc3ccc(N4CCCC4=O)cc3)C2=O)CC1 (stereo not given) | inconclusive: 13% | –
48 | COc1cc(C2CC(=O)Oc3c2c(=O)n(C)c2ccccc32)ccc1O (stereo not given) | inconclusive: 6.46% [at 46 µM] | –
49 | Cc1ccc(NC(=O)c2ccc(OC(F)F)cc2)cc1S(=O)(=O)N(C)C | – | inconclusive: 22.4 µM [fluorescent, single point]
50 | O=C(Cc1ccccc1)NC(Nc1cccc2ccccc12)C(Cl)(Cl)Cl (stereo not given) | inconclusive: 31% | –
51 | CCOC(=O)C1CCN(S(=O)(=O)c2ccc3c(c2)N(C)C(=O)CC(=O)N3C)CC1 | inconclusive: 8.3% [at 46 µM] | –
52 | O=C(COC(=O)c1cccc(Br)c1)NCCC1=CCCCC1 | inconclusive: -5.79% [at 46 µM] | –
53 | Cc1cc(NC(=O)CSc2ccccn2)no1 | inconclusive: -11.7% [at 9.22 µM] | –
54 | CC(C)C(=O)Nc1ccc(C(=O)NNC(=O)CCc2ccccc2)cc1 | inactive | –

Row | Compound | ratio change, negative = inhibition | Potency
55 | O=C(NC(=S)Nc1ccc(S(=O)(=O)N2CCCCC2)cc1)c1ccccc1 | inactive | –
56 | Cc1cc(=O)n(CC(=O)N2CCN(c3ccccc3F)CC2)c2c1c(C)nn2C | inconclusive: -11.8% [at 46 µM] | –
57 | CS(=O)(=O)c1cnc2c(-c3ccsc3)cnn2c1N | inconclusive: 32.3% [at 46 µM] | –
58 | CCN(CC)C(=O)c1sc(NC(=O)c2c(OC)cccc2OC)c(C#N)c1C | inconclusive: 10.2% [at 46 µM] | –
59 | CCCSc1nc2ccsc2c(=O)n1CC | inconclusive: -0.223% [at 46 µM] | –
60 | CC(=O)Nc1nnc(CCS(=O)(=O)c2ccc(Cl)cc2)s1 | inconclusive: -15.4% [at 46 µM] | –
61 | Cc1cccc(NC(=S)NNC(=O)c2sccc2C)c1 | inactive | –
62 | COc1cc2nc(NC(=O)c3ccc(S(=O)(=O)N4CCOCC4)cc3)sc2cc1OC | inconclusive: 4.15% [at 46 µM] | –
63 | NS(=O)(=O)c1ccc(CCNC(=O)CSc2cccs2)cc1 | inactive | –
64 | Oc1ccc(N2CCN(C(c3cccnc3)c3nnnn3Cc3ccccc3)CC2)cc1 (stereo not given) | inconclusive: -32.5% | –
65 | O=C(O)c1ccc(Nc2nc3c(s2)CCCC3)cc1 | inactive: -19.5% [at 9.22 µM] | –
66 | N[C@@H](CSCCCO)C(=O)O | inconclusive: 21.3% | –
67 | NCc1ccccc1COc1ccccc1 | inactive | –
68 | FC(F)(F)c1nc(N2CCCC2)ncc1-c1nnnn1-c1ccc(Cl)cc1 | – | inconclusive: 12.6 µM [fluorescent, partial curve, poor fit]
69 | Cc1ccc(-n2ncc3c(NC4CCCCCC4)ncnc32)cc1Cl | inconclusive: -31.6% [at 46 µM] | –
70 | CCSC1=NC(C)(C)C=C(/C=C/c2ccc(Cl)cc2Cl)N1 | inconclusive: -34% | –
71 | CC(=O)Nc1ccccc1-c1nnn(CC(=O)Nc2ccc3c(c2)OCCO3)n1 | inconclusive: -16.2% [at 46 µM] | –
72 | CS(=O)(=O)N(CC(O)Cn1c2ccccc2c2ccccc21)c1cccc2ccccc12 (stereo not given) | inconclusive: -31.8% | –
73 | CCC(Sc1nc2ccccc2c(=O)n1CCc1ccc(OC)c(OC)c1)C(=O)N(CC)CC (stereo not given) | inconclusive: -25.9% [at 46 µM] | –
74 | CCc1nnc(NC(=O)c2ccc(S(=O)(=O)N3CCN(Cc4ccccc4)CC3)cc2)s1 | inconclusive: -14.5% | –
75 | CCCN(C(=O)Cn1cnc2onc(-c3ccc(F)cc3)c2c1=O)c1cccc(Cl)c1 | inconclusive: -18.9% [at 46 µM] | –
76 | COc1cc(NC(=O)Cn2cnc(S(=O)(=O)N3CCCC3)c2)cc(OC)c1OC | inactive | –
77 | CN1/C(=C/C=N/NC(=O)c2ccc([N+](=O)[O-])cc2)C(C)(C)c2ccccc21 | inactive | –
78 | O=C(/C=C/c1ccccc1)NC(=S)Nc1ccc(N2CCOCC2)cc1 | inactive | –
79 | COc1cccc(C2=NOC(C(=O)NC3CCCCC3)C2)c1 (stereo not given) | inconclusive: 42.8% | –
80 | O=C(Nc1ccc2c(c1)CCCN2C(=O)c1cccs1)c1ccccc1Cl | – | inconclusive: 2.82 µM [inhibitor, full curve]

Complete entries, looked up by structure:
`NCc1ccccc1COc1ccccc1` reads ratio change, negative = inhibition: inactive
`O=C(CS(=O)CC(=O)N(c1cccc(F)c1)C(C(=O)NC1CCCCC1)c1ccco1)Nc1ccc(F)cc1` (stereo not given) reads ratio change, negative = inhibition: inconclusive: 0.51%
`Cc1ccc(S(=O)(=O)NCc2n[nH]c(=S)n2C)cc1` reads ratio change, negative = inhibition: inactive
`O=C(O)c1ccc(Nc2nc3c(s2)CCCC3)cc1` reads ratio change, negative = inhibition: inactive: -19.5% [at 9.22 µM]

From PubChem BioAssay AID1487 (National Center for Advancing Translational Sciences (NCATS), 2009)
